For three molecules, binding results are on record in PMC7324161.

The target in experiment [1] is SIRT6 (endogenous) (human (endogenous in HEK293 and HeLa)), Q8N6T7. Description: co-IP; endogenous proteins in HeLa cells; anti-SIRT6 or anti-SIRT1 immunoprecipitates blotted for the other. Particulars: remark: other sources report otherwise.
The target of experiment [2] is FLAG-SIRT6 (human), Q8N6T7. Description: co-IP; HEK293 cells transfected with FLAG-SIRT6 or FLAG-SIRT1; anti-FLAG M2 agarose at 4°C overnight, lysis buffer 50 mM Tris-HCl pH 7.4, 200 mM NaCl, 0.2% NP40; blot for the endogenous partner; also with CPT (1 μM, 1 hr), which enhanced the interaction. Particulars: remark: other sources report otherwise.
The target in experiment [3] is GST-SIRT6 (human), Q8N6T7. The experiment in a line: pull-down; GST pulldown in vitro between GST-SIRT6 (WT, ΔN, ΔC) and His-SIRT1, without peptide; both purified. Particulars: remark: other sources report otherwise.
Experiment [4] concerns the target GST-SIRT6 (human), Q8N6T7. Description: pull-down; GST pulldown in vitro between GST-SIRT6 and His-SIRT1 in the presence of 10 μM K33ac peptide; both purified. Particulars: remark: other sources report otherwise.
For another experiment, the target named is His-SIRT1 (human) (UniProt Q96EB6). The experiment is described as above.

Results are given in words; binding and its absence hold for the method and conditions named. For some assays here: In cells and extracts the contact can be indirect. Some binding calls cover weakened binding; strength is not graded here. For some assays here: Sequences can lack the tags named with a protein.

B1: SIRT1 (endogenous), Q96EB6 1-747 (protein)
chain: MADEAALALQPGGSPSAAGADREAASSPAGEPLRKRPRRDGPGLERSPGEPGGAAPEREVPAAARGCPGAAAAALWREAEAEAAAAGGEQEAQATAAAGEGDNGPGLQGPSREPPLADNLYDEDDDDEGEEEEEAAAAAIGYRDNLLFGDEIITNGFHSCESDEEDRASHASSSDWTPRPRIGPYTFVQQHLMIGTDPRTILKDLLPETIPPPELDDMTLWQIVINILSEPPKRKKRKDINTIEDAVKLLQECKKIIVLTGAGVSVSCGIPDFRSRDGIYARLAVDFPDLPDPQAMFDIEYFRKDPRPFFKFAKEIYPGQFQPSLCHKFIALSDKEGKLLRNYTQNIDTLEQVAGIQRIIQCHGSFATASCLICKYKVDCEAVRGDIFNQVVPRCPRCPADEPLAIMKPEIVFFGENLPEQFHRAMKYDKDEVDLLIVIGSSLKVRPVALIPSSIPHEVPQILINREPLPHLHFDVELLGDCDVIINELCHRLGGEYAKLCCNPVKLSEITEKPPRTQKELAYLSELPPTPLHVSEDSSSPERTSPPDSSVIVTLLDQAAKSNDDLDVSESKGCMEEKPQEVQTSRNVESIAEQMENPDLKNVGSSTGEKNERTSVAGTVRKCWPNRVAKEQISRRLDGNQYLFLPPNRYIFHGAEVYSDSEDDVLSSSSCGSNSDSGTCQSPSLEEPMEDESEIEEFYNGLEDEPDVPERAGGAGFGTDGDDQEAINEAISVKQEVTDMNYPSNKS
B1: the binding result in experiment [1] and in experiment [2] was “binds” throughout.

B2: His-SIRT1, Q96EB6 1-747 (protein)
chain: MADEAALALQPGGSPSAAGADREAASSPAGEPLRKRPRRDGPGLERSPGEPGGAAPEREVPAAARGCPGAAAAALWREAEAEAAAAGGEQEAQATAAAGEGDNGPGLQGPSREPPLADNLYDEDDDDEGEEEEEAAAAAIGYRDNLLFGDEIITNGFHSCESDEEDRASHASSSDWTPRPRIGPYTFVQQHLMIGTDPRTILKDLLPETIPPPELDDMTLWQIVINILSEPPKRKKRKDINTIEDAVKLLQECKKIIVLTGAGVSVSCGIPDFRSRDGIYARLAVDFPDLPDPQAMFDIEYFRKDPRPFFKFAKEIYPGQFQPSLCHKFIALSDKEGKLLRNYTQNIDTLEQVAGIQRIIQCHGSFATASCLICKYKVDCEAVRGDIFNQVVPRCPRCPADEPLAIMKPEIVFFGENLPEQFHRAMKYDKDEVDLLIVIGSSLKVRPVALIPSSIPHEVPQILINREPLPHLHFDVELLGDCDVIINELCHRLGGEYAKLCCNPVKLSEITEKPPRTQKELAYLSELPPTPLHVSEDSSSPERTSPPDSSVIVTLLDQAAKSNDDLDVSESKGCMEEKPQEVQTSRNVESIAEQMENPDLKNVGSSTGEKNERTSVAGTVRKCWPNRVAKEQISRRLDGNQYLFLPPNRYIFHGAEVYSDSEDDVLSSSSCGSNSDSGTCQSPSLEEPMEDESEIEEFYNGLEDEPDVPERAGGAGFGTDGDDQEAINEAISVKQEVTDMNYPSNKS
Consider B2, for which the binding entry in experiment [3] and in experiment [4] was “binds” each time.
Take PEELERKVWELARL (acetyl-lysine at K33 (K(ac))) [K33ac peptide]: in the experiment with His-SIRT1 (human), the binding entry is “binds”.
